Patent US20150197757, “OXYGEN-RESPONSIVE BACTERIAL GENE SWITCH” (Wisconsin Alumni Research Foundation, published 2015)

Assays:
[1] = biological target: T1, ArcA (chromosomal) (Escherichia coli) (UniProt P0A9Q1); assay: activity in cells; conditions: repression abolished, anaerobic; protein in cells; variant of icdA P1 wt; only the site is given
T1 sequence (looked up, limits assumed): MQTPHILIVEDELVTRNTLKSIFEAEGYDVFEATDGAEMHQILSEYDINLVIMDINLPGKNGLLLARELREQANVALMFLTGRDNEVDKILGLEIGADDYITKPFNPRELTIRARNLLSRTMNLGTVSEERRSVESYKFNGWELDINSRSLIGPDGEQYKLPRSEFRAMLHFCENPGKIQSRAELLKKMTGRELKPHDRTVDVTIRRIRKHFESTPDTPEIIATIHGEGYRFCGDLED

[2] = biological target: T2, His6-ArcA-P (Escherichia coli) (UniProt P0A9Q1); assay: footprint; conditions: binds DR1 and DR2 but not DR3, data not shown; purified recombinant protein; protein details: N-terminal His tag, phosphorylated; label: 3' 32P (footprint)
T2 sequence (looked up, limits assumed): T1 sequence (looked up, limits assumed)

[3] = biological target: T3, ArcA D54A (Escherichia coli) (UniProt P0A9Q1); assay: activity in cells; conditions: repression reduced versus wt ArcA, protein in cells, only the site is given
T3 sequence (looked up, limits assumed): T1 sequence (looked up, limits assumed) with D54A

[4] = biological target: T4, ArcA D54E (Escherichia coli) (UniProt P0A9Q1); assay: activity in cells; conditions: aerobic repression above wt ArcA, protein in cells, only the site is given
T4 sequence (looked up, limits assumed): T1 sequence (looked up, limits assumed) with D54E

[5] = indistinguishable from wt ArcA anaerobically, variant of icdA P1 wt

| Sequence | activity on this sequence [1] | activity on this sequence ([3]; variant of icdA P1 wt) | activity on this sequence [4, 5] | further results |
| --- | --- | --- | --- | --- |
| AGAGCAATTTTTTCATAATGATTTGTAATTGGCTTGTCAATACTACCCTATTGT (double strand) [icdA P1 DR1 GT->CA] | not active |  |  |  |
| AGAGCAATTTTTTGTTAATGATTTCAAATTGGCTTGTCAATACTACCCTATTGT (double strand) [icdA P1 DR2 GT->CA] | not active |  |  |  |
| AGAGCAATTTTTTGTTAATGATTTGTAATTGGCTTGTCAATACTACCCTATTGT (double strand) [icdA P1 wt] |  |  |  | binding result [2]: binds more weakly; activity on this sequence [3]: less active; activity on this sequence ([4]; repression largely eliminated anaerobically): less active |
| AGAGCAATTTTTTGTTAATGATTTGTAATTGGCTTGTTAATACTACCCTATTGT (double strand) [icdA P1 DR3 C->T] |  | less active |  |  |
| AGAGCAATTTTTTGTTAATGATTTGTTATTGGCTTGTTAATACTACCCTATTGT (double strand) [icdA P1 DR2 A->T, DR3 C->T] |  | less active | active |  |
| ATGTTAATTTTTTGTTAATGATTTGTAATTGGCTTGTCAATACTACCCTATTGT (double strand) [icdA P1 5' DR4] |  | less active | active |  |

Changes are numbered by the printed parent chain. For some of these results: A negative result means that nothing was seen under these conditions. Protein sequences can lack the tags named with them. For some of these results: Weaker means in comparison with the reference protein, sequence or condition of that experiment.
